# Measured values as given in PubChem BioAssay AID330 (DTP/NCI, 2004).
# The list is a part of this screen's results and no random one: it is rich in T/C values a quarter to a half above the control, in often repeated tests (any T/C) and in doses without a T/C. Further doses and runs are listed elsewhere. T/C gives the treated animals as a percentage of the vehicle group. Some entries give survivors of the animals treated and no T/C: the source files T/C as zero there, which appears to mark a toxic dose or a test without result, not a measured value. Some doses without a T/C left all or most animals alive at the check, yet need not have been tolerated: the source hardly ever lists a survival T/C far under the control, and the zero likely stands for such cases as well. Survivors were counted at the toxicity check, usually on the fifth day, unless a day is given; later deaths do not show. Schedules are NCI's codes, read here as Q, the interval in days (D) or hours (H), X, the number of doses. Some doses were run more than once; the values are given in rising order. Some molecules as drawn cover several salts, stereoisomers or complexes of the source; a dose is that of the sample tested. For survival time, this PubChem deposit counts one and a half times the control or more as active, and values a quarter to a half above the control carry no call in these data; other NCI protocols may use other cut-offs. Some T/C values carry the count of animals alive at the toxicity check (mostly the fifth day); without a count, all were alive then.
# Test system: P388 leukemia ip, CD2F1 mice, survival T/C
# Assay: NCI In Vivo Anticancer Drug Screen. Data for tumor model P388 Leukemia (intraperitoneal) in CD2F1 (CDF1) mice
# Conditions: T/C endpoint: median survival time, higher T/C = longer survival
# [1] = dose: 200.0 mg/kg/injection, schedule: Q01DX005 (ip), vehicle: Klucel (hydroxypropylcellulose) (HPC)
# [2] = dose: 400.0 mg/kg/injection, schedule: Q01DX005 (ip), vehicle: Klucel (hydroxypropylcellulose) (HPC)
# [3] = dose: 100.0 mg/kg/injection, schedule: Q01DX009 (ip), vehicle: saline with Tween-80
# [4] = dose: 200.0 mg/kg/injection, schedule: Q01DX009 (ip), vehicle: saline with Tween-80
# [5] = dose: 400.0 mg/kg/injection, schedule: Q01DX009 (ip), vehicle: saline with Tween-80
# [6] = dose: 50.0 mg/kg/injection, schedule: Q01DX009 (ip), vehicle: saline
# [7] = dose: 100.0 mg/kg/injection, schedule: Q01DX009 (ip), vehicle: saline
# [8] = dose: 200.0 mg/kg/injection, schedule: Q01DX009 (ip), vehicle: saline
# [9] = dose: 120.0 mg/kg/injection, schedule: Q01DX005 (ip), vehicle: saline with Tween-80
structure (smiles),measurement,setting,value
C[n+]1c(-c2cccc(OCCCCCCCCOc3cccc(-c4c5cc(N)ccc5c5ccc(N)cc5[n+]4C)c3)c2)c2cc(N)ccc2c2ccc(N)cc21,survivor count,"dose: 3.0 mg/kg/injection, schedule: Q01DX009 (ip), vehicle: water",5 of 6
same,survivor count,"dose: 3.12 mg/kg/injection, schedule: Q01DX009 (ip), vehicle: water",6 of 6
same,survivor count,"dose: 6.25 mg/kg/injection, schedule: Q01DX009 (ip), vehicle: water",5 of 6
same,survivor count,"dose: 12.5 mg/kg/injection, schedule: Q01DX009 (ip), vehicle: water",0 of 6
C=CCC1C/C=C\COC(=O)CC(C)(C)CC1=O (stereo not given),survivor count,"dose: 200.0 mg/kg/injection, schedule: Q04DX003 (ip), vehicle: saline",6 of 6
Clc1cc2c(c(CSC3=NCN(CC4CC4)CN3)c1)OCOC2,survivor count,"dose: 120.0 mg/kg/injection, schedule: Q01DX005 (ip), vehicle: Klucel (hydroxypropylcellulose) (HPC)",0 of 6
same,survivor count,"dose: 240.0 mg/kg/injection, schedule: Q01DX005 (ip), vehicle: Klucel (hydroxypropylcellulose) (HPC)",0 of 6
CCCCCCCCCCCC[N+](C)(C)C (tested in a mixture with another compound),survivor count,"dose: 50.0 mg/kg/injection, schedule: Q01DX009 (ip), vehicle: Klucel (hydroxypropylcellulose) (HPC)",4 of 6
same,survivor count,"dose: 100.0 mg/kg/injection, schedule: Q01DX009 (ip), vehicle: Klucel (hydroxypropylcellulose) (HPC)",0 of 6
Nc1nc(N)c2nc(Sc3ccc(F)cc3)c(N)nc2n1,survivor count,[1],6 of 6
same,survivor count,[2],3 of 6
O=c1n(-c2ccccc2)c(=O)n2n1C1C3C4C5C3C2C5(F)C41 (stereo not given),survivor count,"dose: 400.0 mg/kg/injection, schedule: Q04DX003 (ip), vehicle: Klucel (hydroxypropylcellulose) (HPC)",0 of 6
Cc1ccc(-c2c(C)c3c(c(C)c2-c2ccc(C)cc2)-c2ccccc2C3=O)cc1,survivor count,"dose: 400.0 mg/kg/injection, schedule: Q04DX002 (ip), vehicle: saline",2 of 6
[Br][Pt+2][Br].[NH-]C(c1ccccc1)C([NH-])c1ccccc1 (stereo not given),T/C,"dose: 12.5 mg/kg/injection, schedule: Q04DX002 (ip), vehicle: saline with Tween-80",128 % of control
same,T/C,"dose: 25.0 mg/kg/injection, schedule: Q04DX002 (ip), vehicle: saline with Tween-80",128 and 132 % of control
same,T/C,"dose: 50.0 mg/kg/injection, schedule: Q04DX002 (ip), vehicle: saline with Tween-80",131 and 132 % of control
O=C(CCN1CC1)Nc1cccc(NC(=O)CCN2CC2)c1,T/C,"dose: 10.0 mg/kg/injection, schedule: Q01DX009 (ip), vehicle: Klucel (hydroxypropylcellulose) (HPC)","174, 229, 240, 243 % of control"
same,survivor count,"dose: 20.0 mg/kg/injection, schedule: Q01DX009 (ip), vehicle: Klucel (hydroxypropylcellulose) (HPC)",4 of 6 and 5 of 6
same,survivor count,"dose: 40.0 mg/kg/injection, schedule: Q01DX009 (ip), vehicle: Klucel (hydroxypropylcellulose) (HPC)",2 of 6 and 4 of 6
same,survivor count,"dose: 80.0 mg/kg/injection, schedule: Q01DX009 (ip), vehicle: Klucel (hydroxypropylcellulose) (HPC)",0 of 6
Nc1[nH]c(=O)ncc1NC(=O)C(=O)Nc1cnc(=O)[nH]c1N,survivor count,[3],0 of 6
same,survivor count,[4],1 of 6
same,survivor count,[5],0 of 6
CCCCCCCCCCCCCCC[N+]1(CC)CCCC1,survivor count,"dose: 3.12 mg/kg/injection, schedule: Q01DX009 (ip), vehicle: saline",5 of 6
same,survivor count,"dose: 6.25 mg/kg/injection, schedule: Q01DX009 (ip), vehicle: saline",3 of 6
same,survivor count,"dose: 12.5 mg/kg/injection, schedule: Q01DX009 (ip), vehicle: saline",1 of 6
same,survivor count,[6],0 of 6
same,survivor count,[7],0 of 6
same,survivor count,[8],0 of 6
FC(F)(F)C[P+](c1ccccc1)(c1ccccc1)c1ccccc1,T/C,"dose: 50.0 mg/kg/injection, schedule: Q01DX001 (ip), vehicle: saline",137 % of control
C1CC2CC1CC2CNCC1CC2CCC1C2 (stereo not given),survivor count,"dose: 100.0 mg/kg/injection, schedule: Q01DX005 (ip), vehicle: Klucel (hydroxypropylcellulose) (HPC)",0 of 6
same,survivor count,[1],0 of 6
CN(C)c1ccc(C2=CC(c3ccc(N(C)C)cc3)(c3ccc(C(F)(F)F)cc3)C=C(c3ccc(N(C)C)cc3)S2)cc1,survivor count,"dose: 400.0 mg/kg/injection, schedule: Q01DX001 (ip), vehicle: Klucel (hydroxypropylcellulose) (HPC)",6 of 6
CC[N+](C)(CC)CCOC(C)=O,survivor count,"dose: 50.0 mg/kg/injection, schedule: Q01DX001 (ip), vehicle: saline with Tween-80",2 of 6
same,survivor count,"dose: 100.0 mg/kg/injection, schedule: Q01DX001 (ip), vehicle: saline with Tween-80",0 of 6
O=C1CC2(C(=O)N1CN1CCOCC1)c1ccccc1-c1ccccc12,T/C,"dose: 200.0 mg/kg/injection, schedule: Q04DX002 (ip), vehicle: Klucel (hydroxypropylcellulose) (HPC)",137 % of control
same,T/C,"dose: 400.0 mg/kg/injection, schedule: Q04DX002 (ip), vehicle: Klucel (hydroxypropylcellulose) (HPC)",136 and 137 % of control [5 of 6 alive]
ClC1=C(Cl)C2(Cl)C3C4CC(C5OC45)C3N1C2(Cl)Cl (stereo not given),survivor count,"dose: 400.0 mg/kg/injection, schedule: Q01DX001 (ip), vehicle: saline with Tween-80",0 of 6
CC1=CC(C)(C)N=C(N)N1,survivor count,"dose: 100.0 mg/kg/injection, schedule: Q01DX005 (ip), vehicle: saline",0 of 6
same,survivor count,"dose: 200.0 mg/kg/injection, schedule: Q01DX005 (ip), vehicle: saline",0 of 6
O=C(c1ccc([N+](=O)[O-])cc1)C(Br)C(Br)c1ccncc1 (stereo not given),survivor count,"dose: 400.0 mg/kg/injection, schedule: Q01DX009 (ip), vehicle: other",3 of 6
COc1c(O)c(O)cc2c1-c1ccc(OC)c(=O)cc1C(NC(C)=O)CC2 (stereo not given),T/C,"dose: 5.0 mg/kg/injection, schedule: Q01DX009 (ip), vehicle: water",125 and 144 % of control
same,T/C,"dose: 10.0 mg/kg/injection, schedule: Q01DX009 (ip), vehicle: water",137 and 149 % of control
same,survivor count,"dose: 80.0 mg/kg/injection, schedule: Q01DX009 (ip), vehicle: water",4 of 6
CCNC1=CC(=O)c2ncccc2C1=O,survivor count,"dose: 50.0 mg/kg/injection, schedule: Q01DX009 (ip), vehicle: DMSO",5 of 6
COc1ccc(C(=O)CC2CCCC(CC(=O)c3ccc(OC)cc3)N2C)cc1 (stereo not given),survivor count,[4],0 of 6
same,survivor count,[5],0 of 6
O=CNc1ncc([N+](=O)[O-])s1,survivor count,[3],2 of 6
same,survivor count,[4],1 of 6
NC(Cc1ccccc1)C(=O)OCN1C(=O)C2C3C=CC(C2C1=O)C1C2C(=O)N(COC(=O)C(N)Cc4ccccc4)C(=O)C2C31 (stereo not given),T/C,[6],129 % of control
same,T/C,"dose: 50.0 mg/kg/injection, schedule: Q01DX009 (ip), vehicle: water",134 and 137 % of control
same,T/C,[7],136 % of control
same,T/C,"dose: 100.0 mg/kg/injection, schedule: Q01DX009 (ip), vehicle: water",131 and 139 % of control
same,survivor count,[8],2 of 6
same,survivor count,"dose: 200.0 mg/kg/injection, schedule: Q01DX009 (ip), vehicle: water",2 of 6 and 5 of 6
COC(=O)OC(C#N)c1ccccc1[N+](=O)[O-] (stereo not given),survivor count,"dose: 12.5 mg/kg/injection, schedule: Q01DX009 (ip), vehicle: suspension in saline",5 of 6
same,survivor count,"dose: 25.0 mg/kg/injection, schedule: Q01DX009 (ip), vehicle: suspension in saline",5 of 6
same,survivor count,[6],4 of 6
same,survivor count,[7],4 of 6
O=C1Cc2ccccc2C(O)=C1c1cnccn1,survivor count,[9],3 of 6
same,survivor count,"dose: 240.0 mg/kg/injection, schedule: Q01DX005 (ip), vehicle: saline with Tween-80",0 of 6
[N-]=[N+]=N/C=C1\CCOC1=O,survivor count,"dose: 60.0 mg/kg/injection, schedule: Q01DX005 (ip), vehicle: saline with Tween-80",0 of 6 and 1 of 6
same,survivor count,[9],0 of 6
O=C(NCCCCCCNC(=O)c1ccccc1)c1ccccc1,survivor count,[2],6 of 6
CCC(C)(C)NCCCCCNc1cc(OC)cc2cccnc12,survivor count,[1],0 of 6
